# PubChem BioAssay AID504774, Drosophila RNAi Screening Center, 2011
# Test: 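Fly genes whose loss alters survival after alkylation damage to DNA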 (primary screen)
# Cell system: Drosophila Kc167 cells
# Knock-down reagent: long dsRNA against Drosophila genes, about 0.25 µg dsRNA per well
# Timing: about 6 days: 3 days knock-down, then 3 days with or without MMS
# Treatment: methyl methanesulphonate 0.004% (w/v) for 3 days after knock-down
# Detection: 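ATP-dependent luminescence as a measure of live cells in MMS-exposed wells, quantile normalised within each plate, with replicate values also given as a mean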
# Reading the numbers: mean viability with MMS: higher = more surviving cells after MMS
# The deposit covers about 23,000 reagents; this is an unselected part of those that have a named target and a result. 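Values are quantile-normalised luminescence on an arbitrary scale; higher means more cells surviving MMS.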 A plus sign joins genes that one reagent is predicted to hit. Further read-outs or replicates are left out here.
target,dsRNA,mean viability with MMS
CG32100,DRSC09725,3.42e6
CG32100,DRSC10331,3.44e6
UQCR-Q,DRSC10886,3.50e6
CG13996,DRSC02328,3.53e6
CG40298,DRSC22274,3.48e6
CG33459,DRSC05615,3.42e6
Tsp2A,DRSC18584,3.50e6
CG7201,DRSC10786,3.68e6
CG13403,DRSC19535,3.59e6
CG8229,DRSC07114,3.40e6
SmydA-8,DRSC18797,3.55e6
SmydA-8,DRSC22064,3.63e6
SmydA-8,DRSC22263,3.41e6
Cpr78E,DRSC11807,3.72e6
bisc,DRSC04083,3.63e6
Su(var)3-7,DRSC16872,3.55e6
CG30127 (retired record),DRSC05785,3.35e6
CG30127 (retired record),DRSC05786,3.55e6

Continued, starting with the last 3 of the part before.
target,dsRNA,mean viability with MMS
Su(var)3-7,DRSC16872,3.55e6
CG30127 (retired record),DRSC05785,3.35e6
CG30127 (retired record),DRSC05786,3.55e6
IntS8,DRSC07417,3.28e6
pen-2,DRSC05722,3.56e6
Synj,DRSC04526,3.55e6
dbe,DRSC00811,3.47e6
CG34234 + Dh44-R2,DRSC07278,3.53e6
tgo,DRSC17077,3.62e6
CG10562,DRSC14257,3.44e6
CG2256,DRSC18220,3.59e6
SCAP,DRSC04869,3.57e6
SCAP,DRSC04907,3.46e6
